Data as given in PubChem BioAssay AID602196 (INSERM, 2012)
The deposit covers about 23,000 reagents; this is a part drawn at random. 455 of them (2%) count as active. 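Active includes both protection and sensitisation; some change values fall well beyond the stated -50 to +50 range.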 Further read-outs or replicates are left out here. Not stated in the record: the amount of reagent.

Aim: 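Knock-downs that protect lung cancer cells from cisplatin or sensitise them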
Cell system: human A549 lung cancer cells
Knock-down reagent: siRNA pair against human genes
Timing: 48 h transfection before cisplatin; time from cisplatin to read-out not stated
Challenge: cisplatin at a dose killing half of control-siRNA cells; exact dose and duration not given
Detection: 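Shift in cisplatin death relative to control siRNA, from -50 (all cells die) to +50 (no cells die); siRNAs harmful on their own scored 0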
Reading the numbers: two-siRNA summed score (-2 to +2): higher = both siRNAs protect from cisplatin killing; -2 means both sensitise; mean protection from cisplatin (shift in death): higher = protection from cisplatin killing
Hit rule: 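Each siRNA scores 0 if harmful alone by LDH or WST-1, otherwise +1 if it reduces and -1 if it increases cisplatin killing; a gene is active when both siRNAs agree (sum +2 or -2)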
Calls: active = both siRNAs shift cisplatin killing the same way; inactive = no consistent shift, or siRNA harmful alone

gene symbol	two-siRNA summed score (-2 to +2)	mean protection from cisplatin (shift in death) (%)	outcome
SAP30L	0	6.3	inactive
OSGEPL1	0	14.9	inactive
SPATA16	-1	-13.1	inactive
LOC388910	-1	-8.6	inactive
EDAR	-1	-10.1	inactive
INO80B	0	12.2	inactive
TMEM35A	1	19.8	inactive
PDE12	-1	2.8	inactive
FCRL2	0	-1.1	inactive
TNKS2	0	3.8	inactive
FERRY3	0	11	inactive
ANXA1	0	-0.6	inactive
ETNPPL	0	8.6	inactive
FLJ10824	0	3.6	inactive
ELAC1	0	4.4	inactive
PMM1	-1	-19.4	inactive
TCAP	0	-13.6	inactive
LOC90835	-1	-6	inactive
AGER	1	12.4	inactive
PLEKHM1	0	14.9	inactive
KLHL2	1	10.2	inactive
PRRG3	0	-3.7	inactive
IER3IP1	0	1.8	inactive
LOC339483	0	6	inactive
LOC440448	0	17.5	inactive
LOC149643	0	6.8	inactive
MRFAP1L2	0	-6.5	inactive
NKAIN3	0	2.6	inactive
SLC25A23	1	17.2	inactive
ADSS1	0	0.1	inactive
TRMT44	0	8	inactive
CSTA	0	1.7	inactive
LOC392271	0	3.3	inactive
ORC1	1	11.5	inactive
UNG	0	-14.1	inactive
ZFPM2	1	12	inactive
OR2T1	1	14.2	inactive
ST6GALNAC6	0	-2.9	inactive
NDN	0	-12.4	inactive
SLC25A48	-1	1.2	inactive
ACTR5	0	-0.8	inactive
ACSBG1	0	7	inactive
LOC440621	2	21.1	active
LOC440231	0	3.2	inactive
IGSF6	1	11.4	inactive
HSDL1	0	7.8	inactive
GD:PTPRD	0	29.8	inactive
TNFRSF14-AS1	0	-2.5	inactive
PDCD5	-1	-5.5	inactive
OR1L8	0	1.4	inactive
LOC390192	0	4.4	inactive
AWAT1	0	15.5	inactive
TMEM132D	0	-3.2	inactive
LOC441839	0	9.7	inactive
LOC439959	1	9.2	inactive
ZNF138	1	5.9	inactive
CASP5	0	0.9	inactive

9 entries from above, ordered by “two-siRNA summed score (-2 to +2)”, descending.
gene symbol	two-siRNA summed score (-2 to +2)	mean protection from cisplatin (shift in death) (%)	outcome
IGSF6	1	11.4	inactive
HSDL1	0	7.8	inactive
GD:PTPRD	0	29.8	inactive
TNFRSF14-AS1	0	-2.5	inactive
OR1L8	0	1.4	inactive
LOC390192	0	4.4	inactive
AWAT1	0	15.5	inactive
TMEM132D	0	-3.2	inactive
PDCD5	-1	-5.5	inactive
